Results deposited as PubChem BioAssay AID1159584 (Peter MacCallum Cancer Centre, 2016)

- Purpose: 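Knock-downs that harm CDH1-null cells more than parental MCF10A cells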 (primary screen)
- Cells: human MCF10A breast epithelial cells, parental and CDH1-null
- Knock-down reagent: siRNA against human genes
- Measurement: 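ATP luminescence (CellTiter-Glo) viability per line relative to mean mock wells over all plates, and the ratio of CDH1-null to parental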
- Direction: CDH1-null / parental viability ratio: higher = CDH1-null cells survive relatively better than parental; CDH1-null viability vs mock: higher = more viable CDH1-null cells
- Units: CDH1-null viability vs mock in fraction of mock
In all, the deposit lists about 18,000 reagents; below is a part drawn at random. Further read-outs or replicates are left out here. Not given: the amount of reagent, the time to read-out.

BIRC6 gave CDH1-null / parental viability ratio 1.2; CDH1-null viability vs mock 1.15.
For TBXT, the entry reads CDH1-null / parental viability ratio 0.92; CDH1-null viability vs mock 0.96.
MYO9A gave CDH1-null / parental viability ratio 0.99; CDH1-null viability vs mock 0.7.
Knock-down of APOLD1 came out at: CDH1-null / parental viability ratio 0.89; CDH1-null viability vs mock 0.76.
Against SIX2, the entry reads CDH1-null / parental viability ratio 1.09; CDH1-null viability vs mock 0.76.
Knock-down of PAPSS2 resulted in: CDH1-null / parental viability ratio 0.82; CDH1-null viability vs mock 0.64.
NAGA showed CDH1-null / parental viability ratio 1.29; CDH1-null viability vs mock 0.75.
For CLMP, the entry reads CDH1-null / parental viability ratio 1.04; CDH1-null viability vs mock 1.06.
Depletion of RNF187 resulted in: CDH1-null / parental viability ratio 0.75; CDH1-null viability vs mock 0.49.
IL1RAPL1 scored CDH1-null / parental viability ratio 0.93; CDH1-null viability vs mock 0.76.
Against RASSF10, the values are CDH1-null / parental viability ratio 1.21; CDH1-null viability vs mock 1.19.
NPPC showed CDH1-null / parental viability ratio 0.92; CDH1-null viability vs mock 0.55.
Silencing of CCDC142 resulted in: CDH1-null / parental viability ratio 0.64; CDH1-null viability vs mock 0.34.
PBRM1 showed CDH1-null / parental viability ratio 1.15; CDH1-null viability vs mock 0.97.
After knock-down of STON1-GTF2A1L, the screen gave CDH1-null / parental viability ratio 0.95; CDH1-null viability vs mock 0.74.
Knock-down of ABCD1 resulted in: CDH1-null / parental viability ratio 1.06; CDH1-null viability vs mock 0.9.
After knock-down of EML2, the record shows CDH1-null / parental viability ratio 0.98; CDH1-null viability vs mock 0.82.
ADAMTSL5 showed CDH1-null / parental viability ratio 1.05; CDH1-null viability vs mock 0.8.
For TEDC2, the entry reads CDH1-null / parental viability ratio 0.93; CDH1-null viability vs mock 0.77.
Silencing of H2AJ gave: CDH1-null / parental viability ratio 0.97; CDH1-null viability vs mock 0.66.
With knock-down of PRAF2 the results were CDH1-null / parental viability ratio 0.89; CDH1-null viability vs mock 0.59.
Silencing of ALPL came out at: CDH1-null / parental viability ratio 1.56; CDH1-null viability vs mock 0.7.
With knock-down of HNMT, the record shows CDH1-null / parental viability ratio 1.06; CDH1-null viability vs mock 0.88.
After knock-down of TNFRSF11B, the record shows CDH1-null / parental viability ratio 0.89; CDH1-null viability vs mock 0.82.
After knock-down of NDUFB10, the record shows CDH1-null / parental viability ratio 0.78; CDH1-null viability vs mock 0.7.
Against TNFRSF17, the values are CDH1-null / parental viability ratio 1.21; CDH1-null viability vs mock 0.69.
XYLT1 gave CDH1-null / parental viability ratio 0.71; CDH1-null viability vs mock 0.62.
Silencing of ZNF24 came out at: CDH1-null / parental viability ratio 1.22; CDH1-null viability vs mock 0.83.
After knock-down of ZNF70, the record shows CDH1-null / parental viability ratio 0.77; CDH1-null viability vs mock 0.48.
For ATP6V0E1, the entry reads CDH1-null / parental viability ratio 1.26; CDH1-null viability vs mock 0.92.
Silencing of RAD1 resulted in: CDH1-null / parental viability ratio 0.8; CDH1-null viability vs mock 0.6.
With knock-down of FUT5, the screen gave CDH1-null / parental viability ratio 1.14; CDH1-null viability vs mock 0.98.
With knock-down of TFAP2A the results were CDH1-null / parental viability ratio 1.19; CDH1-null viability vs mock 1.07.
Depletion of FMOD came out at: CDH1-null / parental viability ratio 1.1; CDH1-null viability vs mock 0.8.
For PPM1N the deposit lists CDH1-null / parental viability ratio 1.03; CDH1-null viability vs mock 0.72.
For SCIN, the entry reads CDH1-null / parental viability ratio 1.02; CDH1-null viability vs mock 0.59.
Depletion of ABCF1 resulted in: CDH1-null / parental viability ratio 1.16; CDH1-null viability vs mock 1.04.
Against CLSTN3 the deposit lists CDH1-null / parental viability ratio 0.54; CDH1-null viability vs mock 0.44.
Knock-down of RBMY1J came out at: CDH1-null / parental viability ratio 0.79; CDH1-null viability vs mock 0.68.
RFT1 scored CDH1-null / parental viability ratio 1.2; CDH1-null viability vs mock 0.73.
Knock-down of FUCA2 resulted in: CDH1-null / parental viability ratio 0.55; CDH1-null viability vs mock 0.51.
Depletion of NHLRC4 resulted in: CDH1-null / parental viability ratio 1.44; CDH1-null viability vs mock 0.89.
Against HBQ1, the values are CDH1-null / parental viability ratio 1.34; CDH1-null viability vs mock 0.94.
CYC1 showed CDH1-null / parental viability ratio 0.99; CDH1-null viability vs mock 0.98.
With knock-down of INSIG1, the record shows CDH1-null / parental viability ratio 1.01; CDH1-null viability vs mock 0.87.

6 entries already listed, ordered by “CDH1-null / parental viability ratio”, descending:
ATP6V0E1 → CDH1-null / parental viability ratio = 1.26; CDH1-null viability vs mock = 0.92
ZNF24 → CDH1-null / parental viability ratio = 1.22; CDH1-null viability vs mock = 0.83
TFAP2A → CDH1-null / parental viability ratio = 1.19; CDH1-null viability vs mock = 1.07
FUT5 → CDH1-null / parental viability ratio = 1.14; CDH1-null viability vs mock = 0.98
RAD1 → CDH1-null / parental viability ratio = 0.8; CDH1-null viability vs mock = 0.6
ZNF70 → CDH1-null / parental viability ratio = 0.77; CDH1-null viability vs mock = 0.48
